# Test results published in the supplement of paper PMC6658780.
# Counter-ions that a name gives are not always drawn. ± gives the standard deviation of the averaged measurements. Some of the results follow. This data set is noisy: repeats of one test often differ as much as different tests do.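 The A. baumannii strains are clinical isolates chosen because they resist the partner antibiotic, and the screen looks for drugs that restore that antibiotic's effect. The reading at the start of incubation is subtracted to remove background from coloured compounds.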
# How the values were obtained:
# [1] = system: Acinetobacter baumannii NCTC-13301; assay: percent growth inhibition of drug alone vs DMSO control; higher = more growth inhibition; details: antibiotic (0.125x MIC): none (0.1% DMSO)
# [2] = system: Acinetobacter baumannii NCTC-13301; assay: percent growth inhibition of drug + antibiotic vs DMSO control; higher = more growth inhibition
# [3] = system: Acinetobacter baumannii WP-487; assay: percent growth inhibition of drug alone vs DMSO control; higher = more growth inhibition; details: antibiotic (0.125x MIC): none (0.1% DMSO)
# [4] = antibiotic (0.125x MIC): ciprofloxacin, 7 µM
# [5] = antibiotic (0.125x MIC): ciprofloxacin, 20 µM
# [6] = antibiotic (0.125x MIC): gentamicin, 7 µM
# [7] = antibiotic (0.125x MIC): gentamicin, 20 µM
# [8] = antibiotic (0.125x MIC): meropenem, 7 µM
# [9] = antibiotic (0.125x MIC): meropenem, 20 µM
# [10] = antibiotic (0.125x MIC): tigecycline, 7 µM
# [11] = antibiotic (0.125x MIC): tigecycline, 20 µM
structure (smiles),measurement,setting,value
CCCCC[C@H](O)/C=C/[C@@H]1[C@@H](C/C=C\CCCC(=O)O)[C@@H](O)C[C@H]1O [Dinoprost trometamol],percent growth inhibition of drug alone,[1]; 7 µM,-0.267 ± 1.3%
same,percent growth inhibition of drug alone,[1]; 20 µM,-70.4 ± 70%
same,percent growth inhibition,[2]; [4],4.09 ± 8.5%
same,percent growth inhibition,[2]; [5],-1.13 ± 7.6%
same,percent growth inhibition,[2]; [6],-4.95 ± 6.8%
same,percent growth inhibition,[2]; [7],-5.33 ± 6.1%
same,percent growth inhibition,[2]; [8],2.81 ± 2.7%
same,percent growth inhibition,[2]; [9],4.64 ± 8.8%
same,percent growth inhibition,[2]; [10],-2.55 ± 2.7%
same,percent growth inhibition,[2]; [11],1.25 ± 0.76%
N=C(NCCCCCCNC(=N)NC(=N)Nc1ccc(Cl)cc1)NC(=N)Nc1ccc(Cl)cc1 [Chlorhexidine],percent growth inhibition of drug alone,[1]; 7 µM,21 ± 1.6%
same,percent growth inhibition of drug alone,[1]; 20 µM,99.67 ± 0.41%
same,percent growth inhibition,[2]; [4],74.1 ± 1.5%
same,percent growth inhibition,[2]; [5],100.2 ± 0.26%
same,percent growth inhibition,[2]; [8],93 ± 9.9%
same,percent growth inhibition,[2]; [9],99.67 ± 0.38%
CC[C@H]1OC(=O)[C@H](C)[C@@H](O[C@H]2C[C@@](C)(OC)[C@@H](O)[C@H](C)O2)[C@H](C)[C@@H](O[C@@H]2O[C@H](C)C[C@H](N(C)C)[C@H]2O)[C@](C)(O)C[C@@H](C)C(=O)[C@H](C)[C@@H](O)[C@]1(C)O [Erythromycin],percent growth inhibition of drug alone,[1]; 7 µM,13.2 ± 0.32%
same,percent growth inhibition of drug alone,[1]; 20 µM,55.3 ± 3.2%
same,percent growth inhibition,[2]; [8],13.9 ± 3.3%
same,percent growth inhibition,[2]; [9],93.5 ± 5.8%
CCCCCNC(=N)N/N=C/c1c[nH]c2ccc(OC)cc12 [Tegaserod maleate],percent growth inhibition of drug alone,[1]; 7 µM,8.19 ± 1.1%
same,percent growth inhibition of drug alone,[1]; 20 µM,-16.2 ± 44%
same,percent growth inhibition,[2]; [4],8.83 ± 1.1%
same,percent growth inhibition,[2]; [5],32.7 ± 1.9%
same,percent growth inhibition,[2]; [8],14.8 ± 6.2%
same,percent growth inhibition,[2]; [9],56.9 ± 20%
same,percent growth inhibition,[2]; [10],8.93 ± 7.3%
same,percent growth inhibition,[2]; [11],34.5 ± 5%
C[C@@H](O[C@H]1OCCN(Cc2n[nH]c(=O)[nH]2)[C@H]1c1ccc(F)cc1)c1cc(C(F)(F)F)cc(C(F)(F)F)c1 [Aprepitant],percent growth inhibition of drug alone,[1]; 7 µM,-9.08 ± 11%
same,percent growth inhibition of drug alone,[1]; 20 µM,-68.7 ± 45%
same,percent growth inhibition,[2]; [4],-7.03 ± 9.3%
same,percent growth inhibition,[2]; [5],-30.4 ± 19%
same,percent growth inhibition,[2]; [8],-0.828 ± 6.2%
same,percent growth inhibition,[2]; [9],-22.1 ± 8.8%
same,percent growth inhibition,[2]; [10],-8.16 ± 7.3%
same,percent growth inhibition,[2]; [11],-37.7 ± 38%
C=C1/C(=C\C=C2/CCC[C@]3(C)[C@@H]([C@H](C)CCCC(C)C)CC[C@@H]23)C[C@@H](O)C[C@@H]1O [Alfacalcidol],percent growth inhibition of drug alone,[1]; 7 µM,-13.6 ± 18%
same,percent growth inhibition of drug alone,[1]; 20 µM,-104 ± 1.4%
same,percent growth inhibition,[2]; [4],-14 ± 17%
same,percent growth inhibition,[2]; [5],-39.4 ± 29%
same,percent growth inhibition,[2]; [6],-61.6 ± 40%
same,percent growth inhibition,[2]; [7],-80.4 ± 13%
same,percent growth inhibition,[2]; [8],-4.14 ± 11%
same,percent growth inhibition,[2]; [9],-32.6 ± 42%
same,percent growth inhibition,[2]; [10],-54.1 ± 76%
same,percent growth inhibition,[2]; [11],-74 ± 16%
C[C@@H]1CN(c2c(F)c(N)c3c(=O)c(C(=O)O)cn(C4CC4)c3c2F)C[C@H](C)N1 [Sparfloxacin],percent growth inhibition of drug alone,[1]; 7 µM,7.98 ± 7.7%
same,percent growth inhibition of drug alone,[1]; 20 µM,8.47 ± 2.2%
same,percent growth inhibition,[2]; [4],8.13 ± 2.9%
same,percent growth inhibition,[2]; [5],48.3 ± 15%
O=C1NCN(c2ccccc2)C12CCN(CCCC(c1ccc(F)cc1)c1ccc(F)cc1)CC2 [Fluspirilen],percent growth inhibition of drug alone,[3]; 7 µM,3.06 ± 0.55%
same,percent growth inhibition of drug alone,[3]; 20 µM,73.3 ± 35%
CN1CCN(CCCN2c3ccccc3Sc3ccc(C(F)(F)F)cc32)CC1 [Trifluoperazine dihydrochloride],percent growth inhibition of drug alone,[3]; 7 µM,-4.73 ± 8.1%
same,percent growth inhibition of drug alone,[3]; 20 µM,-5.7 ± 4.3%
Oc1c(Cl)cc(Cl)c(Cl)c1Cc1c(O)c(Cl)cc(Cl)c1Cl [Hexachlorophene],percent growth inhibition of drug alone,[1]; 7 µM,52.2 ± 12%
same,percent growth inhibition of drug alone,[1]; 20 µM,89.6 ± 15%
same,percent growth inhibition,[2]; [8],81.5 ± 4.2%
same,percent growth inhibition,[2]; [9],101 ± 0.34%

# Four entries from above, set out differently:
structure (smiles)	measurement	setting	value
N=C(NCCCCCCNC(=N)NC(=N)Nc1ccc(Cl)cc1)NC(=N)Nc1ccc(Cl)cc1 [Chlorhexidine]	percent growth inhibition of drug alone	[1]; 7 µM	21 ± 1.6%
same	percent growth inhibition of drug alone	[1]; 20 µM	99.67 ± 0.41%
same	percent growth inhibition	[2]; [4]	74.1 ± 1.5%
same	percent growth inhibition	[2]; [5]	100.2 ± 0.26%
